Measured values: paper PMC5686067
These are yes or no findings as the source states them, for the method shown. Binding can be weak; no strength is given. For some assays here: Binding seen in cells or lysates may run through a third protein.

What was measured:
[1] = target: T1, sNlpI (soluble NlpI without its lipoprotein signal peptide) (E. coli) (UniProt P0AFB1); assay: crystal structure; sNlpI with Prc-K477A, complex purified by Superdex 200; 0.2 M ammonium citrate pH 7.4, 14% PEG3350, 16 °C; 2.30 Å; both purified
T1 sequence: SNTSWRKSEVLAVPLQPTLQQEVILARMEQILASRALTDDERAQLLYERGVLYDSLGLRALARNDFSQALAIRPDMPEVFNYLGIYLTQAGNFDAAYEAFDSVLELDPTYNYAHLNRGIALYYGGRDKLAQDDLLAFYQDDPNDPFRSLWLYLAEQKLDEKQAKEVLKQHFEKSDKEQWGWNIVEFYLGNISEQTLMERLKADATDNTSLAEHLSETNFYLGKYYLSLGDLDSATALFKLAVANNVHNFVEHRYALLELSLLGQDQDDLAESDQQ

[2] = target: T1, sNlpI (soluble NlpI without its lipoprotein signal peptide) (E. coli); assay: pull-down; Ni-NTA pull-down; cleared lysates of His6-tagged sNlpI (WT or mutants) mixed with lysate of untagged Prc-K477A; 50 mM Tris-HCl pH 8.0, 200 mM NaCl; read by SDS-PAGE

| binding [1] | binding [2] | Substance |
| --- | --- | --- |
| binds | – | Prc-K477A (catalytically inactive, for crystallization) (E. coli) (enzyme) |
| – | binds | Prc-K477A with no tag (E. coli) (enzyme) |
